Results as given in patent publication US20110052564A1.
Results are given in words; binding and its absence hold for the method and conditions named. Some binding calls cover weakened binding; strength is not graded here.

Sequences of proteins named here, by UniProt entry; tags and fusion partners are left off. Residues count along the entry.
UniProt P21530, residues 690-1030: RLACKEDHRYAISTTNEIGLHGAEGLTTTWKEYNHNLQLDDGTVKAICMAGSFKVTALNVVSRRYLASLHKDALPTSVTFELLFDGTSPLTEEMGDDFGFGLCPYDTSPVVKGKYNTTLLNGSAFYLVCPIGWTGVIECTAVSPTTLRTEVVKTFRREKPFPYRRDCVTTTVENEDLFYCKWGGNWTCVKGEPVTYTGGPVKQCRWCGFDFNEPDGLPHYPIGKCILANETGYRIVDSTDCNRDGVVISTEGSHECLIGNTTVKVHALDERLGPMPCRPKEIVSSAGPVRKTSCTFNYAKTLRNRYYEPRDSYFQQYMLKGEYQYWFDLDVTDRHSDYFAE
UniProt P02751, residues 184-273: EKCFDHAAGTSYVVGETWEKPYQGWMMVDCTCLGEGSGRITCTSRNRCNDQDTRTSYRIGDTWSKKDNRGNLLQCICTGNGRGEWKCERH

Key:
[1] = target: crossbeta E2 form cE2-A (Classical Swine Fever Virus) (UniProt P21530); experiment: ELISA, coated E2 form, Fn F4-5 concentration series, anti-FLAG detection
[2] = target: crossbeta E2 form cE2-B (Classical Swine Fever Virus) (UniProt P21530); experiment: as above

Q: How did the binding [1] turn out when “fourth and fifth finger domain of fibronectin (Fn F4-5) with C-terminal FLAG-tag (from UniProt P02751 184-273)” was run?
A: binds

Q: What about the binding [2] of the same substance?
A: binds
